# Test results: PubChem BioAssay AID2517 (National Center for Advancing Translational Sciences (NCATS), 2010)
# Chains of the proteins cited; added tags and fusions are not shown.
# UniProt P27695, whole entry, looked up: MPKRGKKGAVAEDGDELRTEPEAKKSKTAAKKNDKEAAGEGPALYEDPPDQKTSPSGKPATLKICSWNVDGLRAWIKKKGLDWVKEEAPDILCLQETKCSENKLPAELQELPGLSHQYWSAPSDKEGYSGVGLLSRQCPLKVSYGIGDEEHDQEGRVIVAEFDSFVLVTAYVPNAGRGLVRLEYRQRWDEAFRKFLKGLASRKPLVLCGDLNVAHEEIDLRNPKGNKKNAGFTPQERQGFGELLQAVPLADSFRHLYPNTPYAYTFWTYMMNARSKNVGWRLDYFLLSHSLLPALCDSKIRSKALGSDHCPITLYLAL
# Out of some 350,000 compounds screened, about 1,200 (0.34%) were called active. Inconclusive means that the source gave no clear call. Such entries were picked first, then a sample of the others. Calls come from the whole dose curve; as a rule, active = well fitted inhibition curve with a large enough effect; inconclusive = small, poorly fitted or top-dose-only effect; inactive = no such curve, though single readings can be large or run the other way. Potencies beside an inconclusive call are fits to weak or partial responses and may not hold up.
# Target: DNA repair nuclease/redox regulator APEX1 (Homo sapiens) (UniProt P27695)
# Experiment: qHTS Assay for Inhibitors of the Human Apurinic/apyrimidinic Endonuclease 1 (APE1); note: nearly all actives have a fitted effect of over 55% in size;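 for activity change, negative = inhibition: plate controls were vehicle for no effect and reference inhibitor for full effect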
# Conditions: recombinant APE1, TAMRA/BHQ-2 abasic DNA cleavage fluorescence; activity change, negative = inhibition: at 65.8 µM (top of the series)
# Summary of the method: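 APE1 at 0.75 nM final was preincubated with compound 15 min at room temperature, then 50 nM double-stranded THF abasic-site substrate (5'-TAMRA/3'-BHQ-2) was added. Fluorescence (ex 525/em 598 nm) was read kinetically; third-minus-first read gave activity.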
# Potency is the fitted concentration of half-maximal effect.
Structure (SMILES),Potency,"activity change, negative = inhibition"
O=C(NCC(c1cccs1)N1CCOCC1)c1ccc(Br)o1 (configuration not stated),"inconclusive: 39.8 µM [inhibitor, single point]",–
Cc1cccc(C)c1OCC(O)CNS(=O)(=O)c1ccccc1C(=O)N1CCCCC1 (configuration not stated),"inconclusive: 44.7 µM [inhibitor, single point]",–
COC(=O)c1cccc(-c2ccc(C(c3c(C)[nH][nH]c3=O)c3c(C)[nH][nH]c3=O)o2)c1,"inconclusive: 39.8 µM [inhibitor, single point]",–
COc1cccc2oc3ccc(C#Cc4ccccn4)cc3c(=O)c12,–,inactive: 39.8%
O=C(Nc1ccc(Cl)cc1)C(c1ccccc1)N1CCOCC1 (configuration not stated),"inconclusive: 1.12 µM [inhibitor, full curve, poor fit]",–
Cc1cccc(N2CCN(CC(O)COc3ccc(Cl)cc3)CC2)c1 (configuration not stated),–,inactive: -2.44%
Cc1cc(C(=O)COc2cccc3cccnc23)c(C)n1C,–,inactive: -8.38%
CC(=O)OC1CC(OC(C)=O)[C@]2(C)C(CC(=O)[C@]3(C)C2CC[C@@]2(C)C(c4ccoc4)OC(=O)C4O[C@@]423)C1(C)C (some centres not stated),–,inactive: -9.12%
CS(=O)(=O)c1[nH]nc(-c2ccccc2)c1C#N,"inconclusive: 2.24 µM [inhibitor, full curve, poor fit]",–
Cc1ccc([N+](=O)[O-])cc1S(=O)(=O)N(C)C,"inconclusive: 1.78 µM [inhibitor, partial curve, poor fit]",–
COc1ccc(NC2=CC(c3ccc(OC)c(OC)c3)N(c3ccc(OC)cc3)C2=O)cc1 (configuration not stated),"inconclusive: 5.62 µM [inhibitor, full curve, poor fit]",–
CC(Sc1ccccc1)C(=O)NN=C1CCCCCCC1 (configuration not stated),"inconclusive: 39.8 µM [inhibitor, single point]",–
O=C(N/N=C1\CCS(=O)(=O)c2ccc(F)cc21)c1ccc([N+](=O)[O-])cc1,inconclusive: 0.0004 µM [inhibitor],–
C#CCOCCOCCOCCNc1nc(N2CCN(C(=O)[C@H](CCC(=O)O)n3cc(C(N)CC(C)C)nn3)CC2)nc(N2CCN(C(=O)[C@H](Cc3cc4ccccc4[nH]3)n3cc(C(N)[C@H](C)CC)nn3)CC2)n1 (some centres not stated),"inconclusive: 0.0398 µM [inhibitor, full curve, poor fit]",–
Cc1ccccc1P(=O)(CO)c1ccccc1C,"inconclusive: 15.8 µM [inhibitor, partial curve]",–
CNc1ccc(Br)cc(C(=O)/C=C/c2cccc(OC)c2)c1=O,"inconclusive: 3.98 µM [inhibitor, single point]",–
Cc1nc(NC(=O)c2ccccc2)sc1-c1csc(Nc2ccc(C(=O)O)cc2)n1,–,inactive: 15.3%
Nc1ccc(N2CCCCCC2)cc1,"inconclusive: 20 µM [inhibitor, single point]",–
COc1ccc(CNC(=O)Cn2nc(C(F)(F)F)cc2C)cc1,"inconclusive: 44.7 µM [inhibitor, single point]",–
CCCCC/C=C\C=C\[C@@H](O)CCCCCCCC(=O)O,–,inactive: 19.7%
Cc1ccccc1OCC(=O)NCC(=O)N/N=C/c1ccc(Br)o1,–,inactive: -3.45%
O=C(CNC(=O)/C=C/c1ccco1)N=Nc1c(O)[nH]c2ccccc12,active: 8.44 µM,–
O=C(O)C(O)c1ccccc1 (configuration not stated),inactive,–

# As entered above:
# For activity change, negative = inhibition, Cc1nc(NC(=O)c2ccccc2)sc1-c1csc(Nc2ccc(C(=O)O)cc2)n1 is listed with inactive: 15.3%
# For Potency, CNc1ccc(Br)cc(C(=O)/C=C/c2cccc(OC)c2)c1=O is listed with inconclusive: 3.98 µM [inhibitor, single point]
# For Potency, Cc1cccc(C)c1OCC(O)CNS(=O)(=O)c1ccccc1C(=O)N1CCCCC1 (configuration not stated) is listed with inconclusive: 44.7 µM [inhibitor, single point]
# For activity change, negative = inhibition, COc1cccc2oc3ccc(C#Cc4ccccn4)cc3c(=O)c12 is listed with inactive: 39.8%

# (cont.)

Structure (SMILES),Potency,"activity change, negative = inhibition"
Nc1nnc(-c2ccco2)s1,"inconclusive: 3.16 µM [inhibitor, single point]",–
C#CCn1c(-c2ccccc2)ccc(C#N)c1=O,"inconclusive: 0.01 µM [inhibitor, full curve]",–
O=C(O)C1CCN(S(=O)(=O)c2ccc(N3CCOCC3)c([N+](=O)[O-])c2)CC1,"inconclusive: 14.1 µM [inhibitor, partial curve]",–
CSCCC(NS(=O)(=O)c1c(Cl)cccc1Cl)C(=O)O (configuration not stated),"inconclusive: 44.7 µM [inhibitor, single point]",–
COc1cccc(NC(=O)c2ccccc2-c2nc(-c3ccc(Cl)cc3)no2)c1,"inconclusive: 39.8 µM [inhibitor, single point]",–
CCOc1cc(/C=N/NC(=O)c2cccs2)cc([N+](=O)[O-])c1O,"inconclusive: 39.8 µM [inhibitor, single point]",–
CC(C)CNC(=O)COc1ncnc2sccc12,"inconclusive: 10 µM [inhibitor, single point]",–
CCCCCCc1cc2cc(-c3nnc(-c4ccccc4OC)o3)c(=O)oc2cc1O,"inconclusive: 35.5 µM [inhibitor, partial curve]",–
C/C(=N\NS(=O)(=O)c1ccc(Cl)c([N+](=O)[O-])c1)c1ccc(C)o1,"inconclusive: 31.6 µM [inhibitor, single point]",–
Cc1ccccc1N(CC(=O)Nc1ccccc1C(=O)O)S(C)(=O)=O,"inconclusive: 12.6 µM [inhibitor, partial curve, poor fit]",–
CC(=O)Nc1ccccc1C(=O)C(=O)NCCc1ccccc1,"inconclusive: 39.8 µM [inhibitor, single point]",–
CCn1ccc(C(=O)Nc2c(C)nn(Cc3c(F)c(F)c(F)c(F)c3F)c2C)n1,"inconclusive: 0.158 µM [inhibitor, full curve, poor fit]",–
Cc1cc(C(=O)CCl)c(C)n1-c1cccc([N+](=O)[O-])c1,"inconclusive: 39.8 µM [inhibitor, single point]",–
Cc1ccc(S(=O)(=O)N2CCCOC2CNC(=O)C(=O)NCc2cccs2)cc1 (configuration not stated),"inconclusive: 7.94 µM [inhibitor, partial curve]",–
O=C1NC(=O)/C(=C/c2ccc(O)cc2)S1,–,inactive: -6.75%
O=C1/C(=C\c2ccc(O)c(O)c2)Oc2c1ccc(O[C@@H]1O[C@H](CO)[C@@H](O)[C@H](O)[C@H]1O)c2O,"inconclusive: 15.8 µM [inhibitor, partial curve]",–
C=CCn1c(SCC(=O)NCC2CCCO2)nnc1C1CCCCC1 (configuration not stated),"inconclusive: 22.4 µM [inhibitor, single point]",–
O=C(/C=C/c1ccc(O)c(O)c1)OCCc1ccccc1,"inconclusive: 17.8 µM [inhibitor, single point]",–
CCOC(=O)c1c(C)n(C)c2cc(-c3ccc(C)cc3)c(O)cc12,"inconclusive: 44.7 µM [inhibitor, single point]",–
O=C(NC(=S)NCCN1CCOCC1)c1ccc(Cl)cc1,"inconclusive: 31.6 µM [inhibitor, single point]",–
O=S(=O)(Cc1ccccc1Cl)CC(O)COc1ccccc1Cl (configuration not stated),"inconclusive: 28.2 µM [inhibitor, single point]",–
C=CCNC(=S)NNC(=O)COc1ccc(Cl)cc1Cl,"inconclusive: 7.94 µM [inhibitor, single point]",–
O=C1c2cccc3c(Cl)ccc(c23)C(=O)N1O,"inconclusive: 35.5 µM [inhibitor, partial curve]",–

Structure (SMILES),Potency,"activity change, negative = inhibition"
Cn1cnc2c1c(=O)n(Cc1ccc(F)cc1Cl)c(=O)n2C,–,inactive: -4.31%
Oc1c(/C=C/C=C/C=Nc2ccccc2)sc(=S)n1Cc1ccccc1,–,inactive: -6.64%
CCOc1ccc(-c2nnn(CC(=O)N3CCN(c4ccc(F)cc4)CC3)n2)cc1OCC,"inconclusive: 7.94 µM [inhibitor, single point]",–
O=C(c1nn2c(C(F)(F)F)cc(-c3cccs3)nc2c1Br)N1CCCc2ccccc21,"inconclusive: 10 µM [inhibitor, single point]",–
CSc1nsc(/C=C/Nc2ccc(O)cc2C)c1C#N,"inconclusive: 25.1 µM [inhibitor, single point]",–
CCC(=O)Oc1ccc2c(c1)O/C(=C\c1ccco1)C2=O,"inconclusive: 20 µM [inhibitor, partial curve]",–
CCOC(=O)c1ccc(N2N=C(C)/C(=C/C=C/c3ccco3)C2=O)cc1,–,inactive: 3.81%
Cn1cc(Br)c(NC(=O)/C=C/C(=O)O)n1,"inconclusive: 4.47 µM [inhibitor, single point]",–
O=C(NCC(=O)N1CCN(c2ccccc2O)CC1)c1ccc2c(c1)OCO2,–,inactive: 17.1%
CC1(C)S[C@@H]2[C@H](NC(=O)Cc3ccccc3)C(=O)N2[C@H]1C(=O)O (tested in a mixture with another compound),–,inactive: -1.26%
O=C(NCc1ccco1)C1c2ccccc2Oc2ccccc21,"inconclusive: 22.4 µM [inhibitor, partial curve]",–
O=C1N=C(N2CCOCC2)S/C1=C/c1cc2c(cc1[N+](=O)[O-])OCO2,"inconclusive: 8.91 µM [inhibitor, partial curve, poor fit]",–
O=C(CSCCO)Nc1cccc(C(F)(F)F)c1,–,inactive: 2.58%
CNC(=O)CSc1nnc(-c2ccc(S(=O)(=O)N3CCCC3)cc2)n1-c1cccc(C)c1C,–,inactive: -0.397%
O=C(Nc1cccc(F)c1)N1CCC2(CC1)CCN(C(=O)c1cccc(F)c1)CC2,"inconclusive: 0.0025 µM [inhibitor, full curve, poor fit]",–
CC(=O)c1ccc(NC(=O)c2ccc3nc(-c4ccco4)c(-c4ccco4)nc3c2)cc1,"inconclusive: 20 µM [inhibitor, partial curve]",–
COc1ccc(/C=N/NC(=O)c2cc(-c3cccnc3)nc3ccccc23)c(OC)c1,"inconclusive: 31.6 µM [inhibitor, single point]",–
COCC(=O)N1CCC2(CC1)CCN(C(=O)Nc1cccc(C#N)c1)CC2,"inconclusive: 0.0224 µM [inhibitor, full curve, poor fit]",–
COc1ccc(N2CCCn3c2nc2c3c(=O)n(Cc3ccccc3F)c(=O)n2C)cc1,"inconclusive: 44.7 µM [inhibitor, single point]",–
C=CCOc1ccc(C2=NOC(C(=O)Nc3ccc4c(c3)OCCO4)C2)cc1 (configuration not stated),–,inactive: -13.2%
COc1ccc2cc(C(=O)C3CCCN(C(=O)c4snnc4C)C3)ccc2c1 (configuration not stated),"inconclusive: 22.4 µM [inhibitor, partial curve, poor fit]",–
